Results: the supplement of paper PMC10849652
This is one part of the list.

Protein sequences, listed by entry. Tags and fused reporters are not part of them. Lines headed by an entry give the natural chain unless they say otherwise; changes in a name come on top.
UniProt P00441, whole entry, looked up: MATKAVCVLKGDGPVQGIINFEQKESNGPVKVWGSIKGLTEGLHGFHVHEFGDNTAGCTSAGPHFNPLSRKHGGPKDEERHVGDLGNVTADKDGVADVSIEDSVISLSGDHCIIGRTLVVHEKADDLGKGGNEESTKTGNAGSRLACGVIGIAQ
UniProt O60749: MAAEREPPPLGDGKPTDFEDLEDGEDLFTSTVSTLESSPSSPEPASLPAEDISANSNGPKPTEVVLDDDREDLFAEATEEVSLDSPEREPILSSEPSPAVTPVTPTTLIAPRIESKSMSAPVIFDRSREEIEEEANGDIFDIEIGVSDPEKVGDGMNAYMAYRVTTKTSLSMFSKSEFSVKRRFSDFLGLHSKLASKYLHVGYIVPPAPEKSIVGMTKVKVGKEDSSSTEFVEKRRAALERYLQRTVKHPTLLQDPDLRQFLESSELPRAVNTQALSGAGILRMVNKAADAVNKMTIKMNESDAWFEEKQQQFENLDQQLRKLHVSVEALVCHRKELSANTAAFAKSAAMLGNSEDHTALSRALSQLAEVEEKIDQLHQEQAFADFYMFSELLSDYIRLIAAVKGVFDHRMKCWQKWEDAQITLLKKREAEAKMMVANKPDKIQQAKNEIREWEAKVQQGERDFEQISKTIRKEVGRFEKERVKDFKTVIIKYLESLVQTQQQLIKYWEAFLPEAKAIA
UniProt Q8IY18: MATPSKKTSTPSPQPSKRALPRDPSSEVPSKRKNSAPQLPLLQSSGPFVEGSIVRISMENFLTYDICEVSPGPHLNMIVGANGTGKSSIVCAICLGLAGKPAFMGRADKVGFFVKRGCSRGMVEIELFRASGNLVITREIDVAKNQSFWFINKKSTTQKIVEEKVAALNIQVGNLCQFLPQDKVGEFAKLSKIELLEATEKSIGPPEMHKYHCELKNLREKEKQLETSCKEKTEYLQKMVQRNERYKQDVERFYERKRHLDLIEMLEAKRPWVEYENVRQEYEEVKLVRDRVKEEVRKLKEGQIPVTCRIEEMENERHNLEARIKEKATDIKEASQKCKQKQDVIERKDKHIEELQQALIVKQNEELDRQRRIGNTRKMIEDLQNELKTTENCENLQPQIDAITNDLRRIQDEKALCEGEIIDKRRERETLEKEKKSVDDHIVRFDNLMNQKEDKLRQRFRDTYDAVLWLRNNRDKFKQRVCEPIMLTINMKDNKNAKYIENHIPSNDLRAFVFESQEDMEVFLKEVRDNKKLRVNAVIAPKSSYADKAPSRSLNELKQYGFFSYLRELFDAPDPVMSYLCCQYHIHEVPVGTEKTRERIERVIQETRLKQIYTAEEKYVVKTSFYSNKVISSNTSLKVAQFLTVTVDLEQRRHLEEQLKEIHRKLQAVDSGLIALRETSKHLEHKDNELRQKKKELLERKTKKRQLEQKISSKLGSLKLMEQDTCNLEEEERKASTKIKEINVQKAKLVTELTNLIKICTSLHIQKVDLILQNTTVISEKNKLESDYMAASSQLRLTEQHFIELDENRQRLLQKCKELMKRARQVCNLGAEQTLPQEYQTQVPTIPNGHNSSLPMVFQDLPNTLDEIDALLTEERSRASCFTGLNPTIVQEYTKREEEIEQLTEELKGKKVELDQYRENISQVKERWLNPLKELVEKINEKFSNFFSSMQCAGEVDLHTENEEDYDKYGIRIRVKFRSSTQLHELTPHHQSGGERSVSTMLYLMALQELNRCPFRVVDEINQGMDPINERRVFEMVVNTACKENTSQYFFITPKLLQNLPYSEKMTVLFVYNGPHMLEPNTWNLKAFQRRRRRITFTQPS
UniProt Q16637, whole entry, looked up: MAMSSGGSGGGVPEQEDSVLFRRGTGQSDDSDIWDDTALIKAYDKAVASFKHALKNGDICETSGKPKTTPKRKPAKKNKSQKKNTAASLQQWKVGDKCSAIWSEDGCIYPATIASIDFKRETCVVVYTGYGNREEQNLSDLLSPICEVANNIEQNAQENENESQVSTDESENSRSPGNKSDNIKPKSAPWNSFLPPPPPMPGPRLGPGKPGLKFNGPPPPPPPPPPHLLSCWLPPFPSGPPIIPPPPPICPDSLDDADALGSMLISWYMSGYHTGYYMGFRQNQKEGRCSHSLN
UniProt Q07617: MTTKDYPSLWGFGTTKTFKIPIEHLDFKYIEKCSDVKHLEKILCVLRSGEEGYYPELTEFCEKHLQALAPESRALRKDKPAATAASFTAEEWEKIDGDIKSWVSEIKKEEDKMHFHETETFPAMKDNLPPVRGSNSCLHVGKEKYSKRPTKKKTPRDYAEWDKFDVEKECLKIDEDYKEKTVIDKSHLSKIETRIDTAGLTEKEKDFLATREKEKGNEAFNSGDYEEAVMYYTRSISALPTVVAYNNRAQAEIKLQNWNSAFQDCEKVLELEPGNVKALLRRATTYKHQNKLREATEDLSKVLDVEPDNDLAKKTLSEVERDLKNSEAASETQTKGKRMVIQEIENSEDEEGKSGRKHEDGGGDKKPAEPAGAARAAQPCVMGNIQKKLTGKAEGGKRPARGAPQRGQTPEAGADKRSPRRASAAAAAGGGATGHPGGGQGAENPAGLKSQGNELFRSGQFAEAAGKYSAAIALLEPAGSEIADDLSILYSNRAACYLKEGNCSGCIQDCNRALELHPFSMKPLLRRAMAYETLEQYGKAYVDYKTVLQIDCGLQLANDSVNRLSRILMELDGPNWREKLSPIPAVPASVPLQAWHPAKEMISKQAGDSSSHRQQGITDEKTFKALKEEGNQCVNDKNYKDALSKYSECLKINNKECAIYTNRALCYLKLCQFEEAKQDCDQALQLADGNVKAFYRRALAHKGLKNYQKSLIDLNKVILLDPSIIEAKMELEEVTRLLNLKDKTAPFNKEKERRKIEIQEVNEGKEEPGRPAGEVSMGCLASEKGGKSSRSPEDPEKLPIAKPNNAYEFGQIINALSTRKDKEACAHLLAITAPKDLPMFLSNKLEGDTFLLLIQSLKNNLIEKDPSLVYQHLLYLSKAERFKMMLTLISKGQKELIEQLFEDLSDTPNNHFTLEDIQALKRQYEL
UniProt Q969G3, whole entry, looked up: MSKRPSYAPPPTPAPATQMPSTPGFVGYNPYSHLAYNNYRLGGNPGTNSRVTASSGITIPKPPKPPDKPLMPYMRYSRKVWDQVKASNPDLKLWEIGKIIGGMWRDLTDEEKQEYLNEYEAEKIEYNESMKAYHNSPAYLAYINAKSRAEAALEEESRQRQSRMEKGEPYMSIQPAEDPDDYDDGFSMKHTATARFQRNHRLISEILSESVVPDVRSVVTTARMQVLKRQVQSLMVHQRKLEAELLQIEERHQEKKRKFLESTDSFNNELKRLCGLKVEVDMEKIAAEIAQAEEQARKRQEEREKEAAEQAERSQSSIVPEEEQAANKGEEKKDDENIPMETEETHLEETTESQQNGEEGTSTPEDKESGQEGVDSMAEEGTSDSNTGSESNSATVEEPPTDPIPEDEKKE
UniProt O76070, whole entry, looked up: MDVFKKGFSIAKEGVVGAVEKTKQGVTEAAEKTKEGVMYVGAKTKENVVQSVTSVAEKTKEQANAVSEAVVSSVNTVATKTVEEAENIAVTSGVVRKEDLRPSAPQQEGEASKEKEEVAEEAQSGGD
UniProt O75643, whole entry, looked up: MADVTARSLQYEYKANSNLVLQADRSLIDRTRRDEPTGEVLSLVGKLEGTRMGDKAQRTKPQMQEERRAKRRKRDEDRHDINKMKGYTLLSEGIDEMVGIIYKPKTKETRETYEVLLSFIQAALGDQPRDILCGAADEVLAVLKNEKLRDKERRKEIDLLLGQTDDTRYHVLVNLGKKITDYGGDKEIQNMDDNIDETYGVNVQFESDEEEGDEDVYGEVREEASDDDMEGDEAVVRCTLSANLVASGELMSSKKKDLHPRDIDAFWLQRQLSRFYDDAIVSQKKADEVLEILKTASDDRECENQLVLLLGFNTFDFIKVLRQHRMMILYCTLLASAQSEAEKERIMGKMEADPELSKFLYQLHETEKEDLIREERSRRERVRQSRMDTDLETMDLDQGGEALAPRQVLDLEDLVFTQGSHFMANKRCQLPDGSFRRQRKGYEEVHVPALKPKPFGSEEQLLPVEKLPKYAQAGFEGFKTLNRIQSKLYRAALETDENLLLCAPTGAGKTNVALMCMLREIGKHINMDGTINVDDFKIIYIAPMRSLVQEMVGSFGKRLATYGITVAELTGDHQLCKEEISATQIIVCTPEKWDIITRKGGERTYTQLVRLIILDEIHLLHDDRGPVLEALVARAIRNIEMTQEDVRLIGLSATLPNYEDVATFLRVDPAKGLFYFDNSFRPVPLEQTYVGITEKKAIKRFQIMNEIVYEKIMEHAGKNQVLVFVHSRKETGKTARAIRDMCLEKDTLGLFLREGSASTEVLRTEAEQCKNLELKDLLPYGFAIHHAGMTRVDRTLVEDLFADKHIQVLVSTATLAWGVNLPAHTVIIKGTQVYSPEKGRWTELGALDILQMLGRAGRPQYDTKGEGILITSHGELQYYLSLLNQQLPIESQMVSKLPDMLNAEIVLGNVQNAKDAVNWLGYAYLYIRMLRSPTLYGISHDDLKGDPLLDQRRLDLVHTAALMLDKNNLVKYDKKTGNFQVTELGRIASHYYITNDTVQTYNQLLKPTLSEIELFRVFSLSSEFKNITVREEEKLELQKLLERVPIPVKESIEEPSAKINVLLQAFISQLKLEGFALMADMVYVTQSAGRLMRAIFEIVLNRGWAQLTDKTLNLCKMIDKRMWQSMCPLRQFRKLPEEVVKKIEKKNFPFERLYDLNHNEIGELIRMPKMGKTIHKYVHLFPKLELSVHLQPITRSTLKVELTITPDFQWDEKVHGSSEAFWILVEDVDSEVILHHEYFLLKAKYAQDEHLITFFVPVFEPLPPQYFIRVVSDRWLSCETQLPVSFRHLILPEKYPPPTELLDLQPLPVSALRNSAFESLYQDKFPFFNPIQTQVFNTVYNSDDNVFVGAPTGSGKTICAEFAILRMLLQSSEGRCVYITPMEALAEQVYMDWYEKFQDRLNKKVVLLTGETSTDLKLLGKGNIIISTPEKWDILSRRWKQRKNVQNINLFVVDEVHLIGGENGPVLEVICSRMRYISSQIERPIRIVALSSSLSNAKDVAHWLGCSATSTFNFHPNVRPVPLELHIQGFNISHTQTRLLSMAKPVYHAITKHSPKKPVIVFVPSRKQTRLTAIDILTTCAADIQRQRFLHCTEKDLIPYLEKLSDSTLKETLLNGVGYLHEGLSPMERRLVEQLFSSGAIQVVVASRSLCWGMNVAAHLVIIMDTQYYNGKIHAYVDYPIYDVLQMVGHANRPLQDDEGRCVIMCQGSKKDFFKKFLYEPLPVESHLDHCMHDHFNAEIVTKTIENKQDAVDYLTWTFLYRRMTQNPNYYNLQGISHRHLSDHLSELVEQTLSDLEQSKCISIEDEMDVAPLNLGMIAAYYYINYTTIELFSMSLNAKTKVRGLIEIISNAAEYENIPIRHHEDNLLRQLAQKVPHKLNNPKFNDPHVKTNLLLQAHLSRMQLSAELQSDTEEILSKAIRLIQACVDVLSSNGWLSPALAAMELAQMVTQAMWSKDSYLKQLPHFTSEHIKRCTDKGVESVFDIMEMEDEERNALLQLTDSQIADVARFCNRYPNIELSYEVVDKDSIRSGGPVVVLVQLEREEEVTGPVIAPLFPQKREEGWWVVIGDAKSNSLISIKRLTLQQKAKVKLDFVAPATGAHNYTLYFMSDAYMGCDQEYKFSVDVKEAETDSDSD
UniProt P62304, whole entry, looked up: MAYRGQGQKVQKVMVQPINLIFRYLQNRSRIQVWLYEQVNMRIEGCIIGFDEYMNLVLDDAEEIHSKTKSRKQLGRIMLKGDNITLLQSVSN
UniProt P08047, whole entry, looked up: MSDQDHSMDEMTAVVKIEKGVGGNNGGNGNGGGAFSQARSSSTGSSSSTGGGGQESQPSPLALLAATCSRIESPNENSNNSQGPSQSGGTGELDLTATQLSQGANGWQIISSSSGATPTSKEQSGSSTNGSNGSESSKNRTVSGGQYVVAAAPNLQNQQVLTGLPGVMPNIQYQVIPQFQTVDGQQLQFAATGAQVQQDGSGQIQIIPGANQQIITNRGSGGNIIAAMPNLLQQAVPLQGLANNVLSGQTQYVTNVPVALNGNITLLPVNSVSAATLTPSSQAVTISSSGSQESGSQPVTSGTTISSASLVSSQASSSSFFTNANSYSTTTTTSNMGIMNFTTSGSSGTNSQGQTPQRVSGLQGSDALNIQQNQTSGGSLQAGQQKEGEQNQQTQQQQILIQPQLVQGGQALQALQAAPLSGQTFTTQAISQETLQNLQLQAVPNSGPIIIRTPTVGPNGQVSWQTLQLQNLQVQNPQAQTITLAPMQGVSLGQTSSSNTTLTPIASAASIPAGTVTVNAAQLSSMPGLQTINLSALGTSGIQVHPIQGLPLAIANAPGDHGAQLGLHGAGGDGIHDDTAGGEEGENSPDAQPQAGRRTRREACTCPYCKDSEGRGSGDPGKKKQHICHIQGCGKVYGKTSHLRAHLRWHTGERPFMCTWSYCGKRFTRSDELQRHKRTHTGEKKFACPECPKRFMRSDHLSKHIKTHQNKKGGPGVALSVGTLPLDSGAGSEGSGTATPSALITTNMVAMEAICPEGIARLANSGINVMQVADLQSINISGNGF

Assays:
Assay in all cases: log2 fold change, soluble protein after heating vs DMSO (PISA); higher = thermal stabilisation; K562 lysate, 10 uM; active = over 0.2 and 3.5 SD of the protein, either way, in both replicates (recomputed)
[1] = compound: C1=CC=C(C=C1)[C@H](COC2=CC3=C(C=C2)NC(=O)N3)NC(=O)C4=CC=CN(C4=O)CC5=CC(=C(C=C5)F)F
In short: (§1)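 Thermal stability, expressed as log-two fold change relative to solvent controls, is given from duplicates. Crude K562 extract in PBS pH 7.4 with 1 mM MgCl2, at 1 mg/mL protein, was treated with 10 μM compound for 30 min and heated in aliquots for 3 min across 48°C-58°C. After pooling, adjustment to 0.5% NP-40 at 4°C and centrifugation at 21,000xg for 90 min, supernatant protein was measured by TMTpro 16plex LC-MS/MS with channel sums equalised.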

[2] = compound: CC1=C(SC2=C1C(=N[C@H](C3=NN=C(N32)C)CC(=O)N)C4=CC=C(C=C4)Cl)C
In short: as §1

[3] = compound: CC1=C2C(=CC=C1)N=C(N(C2=O)C3=CC=CC=C3C)CN4C=NC5=C(N=CN=C54)N
In short: as §1

[4] = compound: Cc1sc2c(c1C)C(c1ccc(Cl)cc1)=N[C@@H](CC(=O)OC(C)(C)C)c1nnc(C)n1-2
In short: as §1

[5] = compound: c1ccc([C@@H]2C[C@H]2NC2CCNCC2)cc1
In short: as §1

Target	log2 fold change [1]	log2 fold change [2]	log2 fold change [3]	log2 fold change [4]	log2 fold change [5]
SOD1 (UniProt P00441)	inactive: 0.04	inactive: -0.027	inactive: -0.061	inactive: 0.051	inactive: 0.159
SMG6 (UniProt Q86US8)	inactive: 0.097	inactive: -0.041	inactive: -0.043	inactive: 0.076	inactive: 0.073
SNW1 (UniProt Q13573)	inactive: 0.018	inactive: -0.002	inactive: -0.009	inactive: 0.022	inactive: 0.048
SNRPB isoform 3 (UniProt P14678)	inactive: -0.02	inactive: -0.011	inactive: -0.011	inactive: 0.054	inactive: 0.046
SNX2 isoform 2 (UniProt O60749)	inactive: -0.029	inactive: 0.072	inactive: 0.145	inactive: -0.101	–
SNX14 (UniProt Q9Y5W7)	inactive: 0.038	inactive: -0.058	inactive: -0.014	inactive: -0.075	–
SMC1B isoform 3 (UniProt Q8NDV3)	inactive: 0.009	inactive: 0.076	inactive: 0.12	inactive: -0.063	–
SON isoform 9 (UniProt P18583)	inactive: -0.034	inactive: -0.084	inactive: -0.027	inactive: 0.036	inactive: -0.031
SNX5 (UniProt Q9Y5X3)	inactive: 0.025	inactive: -0.01	inactive: 0.012	inactive: 0.004	inactive: 0.021
SMIM20 isoform 2 (UniProt Q8N5G0)	inactive: -0.205	inactive: -0.081	inactive: -0.114	inactive: -0.061	inactive: 0.075
SMC5 (UniProt Q8IY18)	inactive: 0.01	inactive: 0	inactive: -0.016	inactive: -0.026	inactive: -0.01
SORBS3 (UniProt O60504)	inactive: 0.047	inactive: 0.081	inactive: -0.049	inactive: 0.028	inactive: 0.022
SMN1 (UniProt Q16637)	inactive: 0.083	inactive: -0.054	inactive: 0.054	inactive: -0.012	inactive: 0.024
SMC6 (UniProt Q96SB8)	inactive: -0.049	inactive: 0.006	inactive: 0.014	inactive: -0.036	inactive: -0.047
SNTB2 (UniProt Q13425)	inactive: 0.003	inactive: -0.012	inactive: 0.012	inactive: -0.011	inactive: -0.003
SPAG1 (UniProt Q07617)	inactive: -0.046	inactive: -0.327	inactive: 0.081	–	–
SNX27 (UniProt Q96L92)	inactive: -0.043	inactive: 0.023	inactive: 0.008	inactive: 0.044	inactive: 0.004
SNX15 (UniProt Q9NRS6)	inactive: -0.024	inactive: 0.007	inactive: 0.005	inactive: 0.016	inactive: -0.011
SMC2 (UniProt O95347)	inactive: -0.007	inactive: 0.018	inactive: 0.016	inactive: 0.003	inactive: 0.069
SMG5 (UniProt Q9UPR3)	inactive: -0.078	inactive: 0.041	inactive: 0.026	inactive: -0.047	inactive: -0.024
SNX11 (UniProt Q9Y5W9)	inactive: 0.063	inactive: 0.009	inactive: 0.09	inactive: -0.09	inactive: 0.051
SPARC (UniProt P09486)	inactive: 0.044	inactive: 0.037	inactive: -0.063	inactive: -0.091	inactive: 0.098
SNCA (UniProt P37840)	inactive: 0.211	inactive: 0	inactive: -0.009	inactive: 0.211	inactive: -0.077
SMARCE1 (UniProt Q969G3)	inactive: -0.021	inactive: -0.003	inactive: 0.02	inactive: -0.004	inactive: 0.021
SPAG7 (UniProt O75391)	inactive: 0.01	inactive: -0.029	inactive: -0.021	inactive: 0.019	inactive: -0.077
SNRNP48 (UniProt Q6IEG0)	inactive: -0.148	inactive: 0.059	inactive: 0.091	inactive: 0.002	inactive: 0.011
SNCG (UniProt O76070)	inactive: -0.01	inactive: -0.054	inactive: -0.043	inactive: 0.046	inactive: -0.058
SNRNP200 (UniProt O75643)	inactive: 0.01	inactive: 0.017	inactive: 0.011	inactive: 0.002	inactive: -0.001

Target	log2 fold change [1]	log2 fold change [2]	log2 fold change [3]	log2 fold change [4]	log2 fold change [5]
SMTN isoform 6 (UniProt P53814)	inactive: 0.053	inactive: -0.011	inactive: -0.01	inactive: 0.01	inactive: 0.081
SMIM8 (UniProt Q96KF7)	inactive: 0.061	inactive: 0.044	inactive: 0.004	inactive: 0.047	inactive: -0.157
SMARCA4 (UniProt P51532)	inactive: -0.034	inactive: 0.016	inactive: 0.003	inactive: 0.014	inactive: 0.055
SMCHD1 (UniProt A6NHR9)	inactive: 0.006	inactive: -0.029	inactive: 0.036	inactive: 0.022	inactive: -0.056
SNRNP25 (UniProt Q9BV90)	inactive: -0.019	inactive: -0.066	–	–	–
SNRNP70 (UniProt P08621)	inactive: 0.009	inactive: 0.045	inactive: -0.033	inactive: 0.02	inactive: -0.004
SNRPD3 (UniProt P62318)	inactive: -0.02	inactive: -0.011	inactive: 0.022	inactive: -0.027	inactive: -0.118
SNX2 (UniProt O60749)	inactive: 0.01	inactive: 0.002	inactive: 0.021	inactive: -0.006	inactive: 0.018
SMYD3 (UniProt Q9H7B4)	inactive: 0.028	inactive: 0.05	inactive: 0.035	inactive: -0.001	–
SNRPE (UniProt P62304)	inactive: 0.002	inactive: 0.018	inactive: 0.007	inactive: -0.044	inactive: -0.024
SMC4 (UniProt C9JJ64)	inactive: -0.189	inactive: 0.179	–	–	–
SMS (UniProt P52788)	inactive: -0.013	inactive: 0.026	inactive: -0.001	inactive: 0	inactive: 0.011
SNRPD1 (UniProt P62314)	inactive: -0.048	inactive: 0.047	inactive: -0.02	inactive: -0.028	inactive: -0.018
SORT1 (UniProt Q99523)	inactive: 0.011	inactive: 0.012	inactive: 0.022	inactive: -0.022	inactive: -0.02
SNRPB2 (UniProt P08579)	inactive: 0.025	inactive: -0.006	inactive: 0.005	inactive: -0.005	inactive: 0.004
SPA17 (UniProt Q15506)	inactive: 0.057	inactive: -0.064	inactive: -0.006	inactive: -0.132	inactive: -0.364
SOX12 (UniProt O15370)	inactive: 0.101	inactive: 0.05	inactive: 0.09	inactive: -0.108	inactive: -0.185
SNAPIN (UniProt O95295)	inactive: 0.027	inactive: -0.074	inactive: -0.046	inactive: -0.012	inactive: -0.025
SMC4 (UniProt Q9NTJ3)	inactive: -0.033	inactive: 0.003	inactive: -0.011	inactive: -0.005	inactive: 0.055
SNRPC (UniProt Q5TAL2)	inactive: 0.099	inactive: -0.014	inactive: 0.037	inactive: -0.038	inactive: -0.056
SMARCAL1 (UniProt Q9NZC9)	inactive: -0.082	inactive: -0.059	inactive: 0.018	inactive: 0.022	inactive: 0.096
SOAT1 (UniProt P35610)	inactive: 0.041	inactive: -0.002	inactive: -0.008	active: 0.282	inactive: -0.06
SP1 (UniProt P08047)	inactive: 0.007	inactive: 0.042	inactive: 0.001	inactive: 0.038	inactive: 0
SMARCC2 (UniProt Q8TAQ2)	inactive: -0.001	inactive: 0.019	inactive: 0.02	inactive: -0.01	inactive: 0.012
SMNDC1 (UniProt O75940)	inactive: 0.035	inactive: 0	inactive: -0.003	inactive: -0.014	inactive: -0.023
SNU13 (UniProt P55769)	inactive: 0.032	inactive: 0.01	inactive: -0.09	inactive: 0.024	inactive: 0
SNTA1 (UniProt Q13424)	inactive: 0.013	inactive: 0.044	inactive: 0.023	inactive: 0.205	inactive: 0

Part of the list above, bar-delimited:
Target | log2 fold change [1] | log2 fold change [2] | log2 fold change [3] | log2 fold change [4] | log2 fold change [5]
SMCHD1 (UniProt A6NHR9) | inactive: 0.006 | inactive: -0.029 | inactive: 0.036 | inactive: 0.022 | inactive: -0.056
SNRNP25 (UniProt Q9BV90) | inactive: -0.019 | inactive: -0.066 | – | – | –
SNRNP70 (UniProt P08621) | inactive: 0.009 | inactive: 0.045 | inactive: -0.033 | inactive: 0.02 | inactive: -0.004
SNRPD3 (UniProt P62318) | inactive: -0.02 | inactive: -0.011 | inactive: 0.022 | inactive: -0.027 | inactive: -0.118
SNX2 (UniProt O60749) | inactive: 0.01 | inactive: 0.002 | inactive: 0.021 | inactive: -0.006 | inactive: 0.018
SMYD3 (UniProt Q9H7B4) | inactive: 0.028 | inactive: 0.05 | inactive: 0.035 | inactive: -0.001 | –
SNRPE (UniProt P62304) | inactive: 0.002 | inactive: 0.018 | inactive: 0.007 | inactive: -0.044 | inactive: -0.024
SMC4 (UniProt C9JJ64) | inactive: -0.189 | inactive: 0.179 | – | – | –
SMS (UniProt P52788) | inactive: -0.013 | inactive: 0.026 | inactive: -0.001 | inactive: 0 | inactive: 0.011
SNRPD1 (UniProt P62314) | inactive: -0.048 | inactive: 0.047 | inactive: -0.02 | inactive: -0.028 | inactive: -0.018
